In patent publication US9512107B2, “Therapeutically active compositions and their methods of use” (Agios Pharmaceuticals, Inc., priority 2012, dated 2016):
Structures were worked out from names or drawings and are uncertain.

By UniProt entry, the sequences of proteins in these tests, tags left out. Residues count along the entry.
UniProt P48735, 40-452 R140Q limits assumed: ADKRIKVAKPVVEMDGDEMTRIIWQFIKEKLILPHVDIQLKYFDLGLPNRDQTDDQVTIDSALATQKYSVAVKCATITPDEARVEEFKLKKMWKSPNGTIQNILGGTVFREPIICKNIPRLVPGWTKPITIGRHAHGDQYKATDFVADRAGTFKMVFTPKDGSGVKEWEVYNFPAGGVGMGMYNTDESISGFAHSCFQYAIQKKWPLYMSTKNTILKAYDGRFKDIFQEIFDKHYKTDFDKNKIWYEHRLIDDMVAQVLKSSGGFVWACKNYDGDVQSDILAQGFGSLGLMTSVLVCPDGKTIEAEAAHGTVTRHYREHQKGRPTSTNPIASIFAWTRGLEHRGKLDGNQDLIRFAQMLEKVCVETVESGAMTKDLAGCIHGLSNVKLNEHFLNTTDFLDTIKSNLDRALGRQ
UniProt P48735, 40-452 R172K limits assumed: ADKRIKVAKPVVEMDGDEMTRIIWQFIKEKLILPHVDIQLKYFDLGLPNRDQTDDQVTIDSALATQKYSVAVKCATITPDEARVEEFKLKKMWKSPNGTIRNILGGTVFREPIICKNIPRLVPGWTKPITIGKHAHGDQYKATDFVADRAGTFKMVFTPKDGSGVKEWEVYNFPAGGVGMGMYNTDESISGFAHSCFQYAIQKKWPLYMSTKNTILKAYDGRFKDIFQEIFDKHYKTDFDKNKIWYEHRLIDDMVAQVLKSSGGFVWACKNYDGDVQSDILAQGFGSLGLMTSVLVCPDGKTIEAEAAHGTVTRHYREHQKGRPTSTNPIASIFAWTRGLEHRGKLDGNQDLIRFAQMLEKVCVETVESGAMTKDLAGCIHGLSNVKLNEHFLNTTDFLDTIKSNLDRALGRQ

How the values were obtained:
IDH2 R140Q = IDH2 R140Q (Homo sapiens, UniProt P48735, R140Q); test: IDH2 R140Q enzymatic assay (cofactor depletion, similar format); details: read-out: Enz R140Q
[1] = tested on: U87MG pLVX-IDH2 R140Q-neo cells; test: U87MG pLVX-IDH2 R140Q-neo cell based assay, 2-HG in media by LC-MS at 48 hours; details: read-out: Cell R140Q
IDH2 R172K = IDH2 R172K (Homo sapiens, UniProt P48735, R172K); test: IDH2 R172K enzymatic assay (NADPH cofactor depletion, diaphorase/resazurin readout); details: read-out: Enz R172K

| SMILES | IC50 (IDH2 R140Q) [nM] | IC50 [1] [nM] | IC50 (IDH2 R172K) [nM] |
| --- | --- | --- | --- |
| CC(C)CNc1nc(Nc2ccnc(C#N)c2)nc(-c2cccc(C(F)(F)F)n2)n1 | 100 to 1000 | < 100 |  |
| CC(C)(C)OC(=O)N1CCC(Nc2nc(Nc3ccnc(C(F)(F)F)c3)nc(-c3cccc(Cl)n3)n2)CC1 | 100 to 1000 | 100 to 1000 | 1000 to 10000 |
| CC(C)(C)CNc1nc(Nc2cncc(C#N)c2)nc(-c2nccc(C(F)(F)F)n2)n1 | 100 to 1000 | < 100 | 100 to 1000 |
| CC(C)Nc1nc(Nc2ccnc(C#N)c2)nc(-c2nccc(C(F)(F)F)n2)n1 | 100 to 1000 | < 100 | < 100 |
| CC(C)(O)CNc1nc(Nc2cncc(C#N)c2)nc(-c2cccc(C(F)(F)F)n2)n1 | 1000 to 10000 | 100 to 1000 |  |
| CC(C)Nc1nc(Nc2ccccc2)nc(-c2cccc(O)n2)n1 | 100 to 1000 |  |  |
| COCC(C)Nc1nc(Nc2ccnc(C(F)(F)F)c2)nc(-c2cccc(C(F)(F)F)n2)n1 (stereo not drawn) | 100 to 1000 | < 100 | < 100 |
| CC(C)Nc1nc(Nc2ccccc2O)nc(-c2ccccc2)n1 | < 100 | 100 to 1000 |  |
| CC(C)Nc1nc(Nc2ccnc(C(C)(C)O)c2)nc(-c2ccccc2)n1 | 100 to 1000 | < 100 |  |
